Reference: patent US5204341A, “1-arylsulphonyl-2-pyrrolidone derivatives, their preparation process and the new intermediates obtained, their use as medicaments and the pharmaceutical compositions containing them” (priority 1990, dated 1993)
At least one structure is not confirmed: it was looked up by name or label, or the drawing left a doubt. Some of these results come from one statement about several compounds together.

Molecular target: T1, Muscarinic receptor 1 (Rattus norvegicus, UniProt P08482)
T1 construct: cortex removed from the brains of male rats weighing 150 to 200 g (Iffa Credo); from tissue; host or cells: rat cerebral cortex homogenate
T1 sequence (P08482 1-460): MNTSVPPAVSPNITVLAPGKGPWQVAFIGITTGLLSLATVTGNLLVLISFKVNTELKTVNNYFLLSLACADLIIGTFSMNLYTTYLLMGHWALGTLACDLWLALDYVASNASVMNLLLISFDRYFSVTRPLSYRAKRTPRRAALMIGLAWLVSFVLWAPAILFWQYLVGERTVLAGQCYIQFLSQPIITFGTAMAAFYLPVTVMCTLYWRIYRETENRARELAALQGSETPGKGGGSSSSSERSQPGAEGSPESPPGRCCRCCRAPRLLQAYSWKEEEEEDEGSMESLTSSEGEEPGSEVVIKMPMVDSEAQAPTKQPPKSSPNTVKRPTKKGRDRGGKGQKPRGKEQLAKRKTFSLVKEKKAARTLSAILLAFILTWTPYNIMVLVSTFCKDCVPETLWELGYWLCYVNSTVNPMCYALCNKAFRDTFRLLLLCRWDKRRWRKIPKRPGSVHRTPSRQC
Assay: Affinity for the muscarinic M1 receptor ([^3 H]pirenzepine binding, rat cortex)
Settings: M1 versus other types
Method: Its preparation is carried out from cortex removed from the brains of male rats weighing 150 to 200 g (Iffa Credo) ground up in a Polytron in a 10 mM Na/K pH 7.4 buffer. After incubation (0.5 ml aliquots of homogenate) for 60 minutes at 25° C. in the presence of 0.25 nM of ^3 H pirenzepine either on its own, or with the product to be tested, or with an excess of pirenzepine at 10^-5 M (in order to determine the non-specific fixed radioactivity), the incubates are cooled down and filtered.
The filtration is carried out on Whatman GF/C filters prewashed in a 0.05% polyethylene imine solution. The filters are rinsed with 3×5 ml of 10 mM Na/K pH 7.4 phosphate buffer, then measurements are carried out by liquid scintillation.
The results are expressed in IC50 (concentration necessary to inhibit 50% of the fixed specific radio-activity).

Row | Compound | preference for muscarinic receptor type (in words)
1 | CCN(CC)c1ccc(S(=O)(=O)N2CC(O)CC2=O)cc1 (centres unmarked) [Example 1, 1-[[4-(diethylamino)-phenyl]sulphonyl]-4-hydroxy-2-pyrrolidinone] | mainly for the M1 type of receptor
2 | O=S(=O)(c1ccc(N2CCCCC2)cc1)N1CC(O)CC1=S (centres unmarked) [Example 5] | mainly for the M1 type of receptor
3 | CCN(CC)c1ccc(S(=O)(=O)N2CC(O)CC2=S)cc1 (centres unmarked) [Example 3, 1-[[4-(diethylamino)-phenyl]-sulphonyl]-4-hydroxy-2-pyrrolidine thione] | mainly for the M1 type of receptor
4 | O=C1CC(O)CN1S(=O)(=O)c1ccc(N2CCCCCC2)cc1 (centres unmarked) [Example 6, 1-[[4-(hexahydro-1H-azepin-1-yl)-phenyl]-sulphonyl]-4-hydroxy-pyrrolidinon] | mainly for the M1 type of receptor
5 | O=C1CC(O)CN1S(=O)(=O)c1ccc(N2CCCCC2)cc1 (centres unmarked) [Example 4, 4-hydroxy-1-[[4-(1-piperidinyl)-phenyl]-sulphonyl]-2-pyrrolidinone] | mainly for the M1 type of receptor
6 | 1-[[4-(dimethylamino)-phenyl]-sulphonyl]-4-(2,2-dimethyl-1-oxo-propoxy)-2-pyrrolidinone [Example 2] | mainly for the M1 type of receptor

Test system: cholinomimetic effects induced by carbachol
Assay: In vivo anti-cholinergic action: inhibition of cholinomimetic effects induced by carbachol in mice
Set-up: species or system CD1 male mice
Settings: contrary to atropine
Method: The anti-cholinergic activity of the compounds was determined by evaluating the capacity to inhibit the cholino-mimetic effects induced by carbachol. Atropine sulphate was used as reference product.
CD1 male mice weighing 25 to 30 g are used. They are divided into groups of 6 animals and treated by intraperi-toneal route at scalar doses of the products or 0.25% Methocel for the controls. 12 animals are used for each dose. 30 minutes after the administration of the compounds, 1 mg/kg of carbachol, dissolved in physiological serum, was injected into the mice by sub-cutaneous route.
Each animal was examined 30 minutes after the injection of carbachol to evaluate the presence of diarrhoea, salivation and weeping; the body temperature was also measured using a thermocouple inserted 1.5 cm inside the rectum.
For each compound, we have determined the dose which can inhibit, in 50% of the animals, the appearance of cholinomimetic symptoms induced by carbachol and […] the hypothermic effect induced by the cholinergic agent by 1° C.

Row | Compound | selectivity of in vivo anticholinergic action (in words)
7 | O=C1CC(O)CN1S(=O)(=O)c1ccc(N2CCCCCC2)cc1 (centres unmarked) [Example 6, 1-[[4-(hexahydro-1H-azepin-1-yl)-phenyl]-sulphonyl]-4-hydroxy-pyrrolidinon] | selective anticholingeric action at the level of the intestinal musculature
8 | O=S(=O)(c1ccc(N2CCCCCC2)cc1)N1CC(O)CC1=S (centres unmarked) [Example 7, 1-[[4-(hexahydro-1H-azepin-1-yl)-phenyl]-sulphonyl]-4-hydroxy pyrrolidine thione] | selective anticholingeric action at the level of the intestinal musculature
